{
  "source": "patent US20240150839A1",
  "about": "“METHODS FOR PREDICTING RESPONSIVENESS OF PROSTATE CANCER PATIENTS TO PARP INHIBITORS” (Memorial Sloan Kettering Cancer Center, priority 2019, published 2024)",
  "system": "BRCA2-RB1 knockout/knockdown LNCaP cells",
  "assay": "MTT cell growth with palbociclib",
  "type": "cell-based, human",
  "details": "3 μM palbociclib, 3 days (FIG. 2B)",
  "note": "At least one compound was matched to its structure with a doubt left.",
  "data": [
    {"compound": "CC(=O)c1c(C)c2cnc(Nc3ccc(N4CCNCC4)cn3)nc2n(C2CCCC2)c1=O", "note": "[palbociclib]", "values": [
      {"measurement": "resistance to palbociclib (cell growth, MTT)", "value": "relative resistance"}
    ]}
  ]
}
